# Assay results reported in the supplement of paper PMC3334620.
# The full ranking holds about 33,000 sequences; the median of “E-score (-0.5 to 0.5)” is about -0.0034, and the highest 2% start at about 0.25. This is one part of the list.
# Target: T1, Yap3 (UniProt P38749)
# T1 sequence: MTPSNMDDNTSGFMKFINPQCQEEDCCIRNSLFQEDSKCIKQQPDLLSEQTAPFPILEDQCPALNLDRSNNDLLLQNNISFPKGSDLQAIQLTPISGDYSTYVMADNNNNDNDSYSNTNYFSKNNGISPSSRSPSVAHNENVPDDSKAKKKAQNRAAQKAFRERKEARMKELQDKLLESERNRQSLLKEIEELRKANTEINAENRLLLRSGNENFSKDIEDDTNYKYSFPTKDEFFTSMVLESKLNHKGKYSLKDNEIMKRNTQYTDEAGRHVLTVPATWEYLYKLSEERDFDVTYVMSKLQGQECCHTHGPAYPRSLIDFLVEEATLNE
# Assay: PBM E-score (8-mer binding enrichment) (E-score (-0.5 to 0.5)); higher = stronger / more preferred TF binding
# Details: protein concentration: 100 nM; construct: GST-full length
# Method in brief: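 PURExpress in vitro transcription/translation supplied GST-tagged yeast transcription factors, either full-length or DNA-binding domain. Applied at about 100-200 nM to universal all-10-mer Agilent arrays double-stranded by primer extension, the bound protein was detected with fluorescent anti-GST. E-scores, modified Wilcoxon-Mann-Whitney statistics, were given by the Universal PBM Analysis Suite to ungapped eight-base words pooled with their reverse complements after masliner normalisation.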
row,Sequence,PBM E-score
1,GTTAGATA,0.164
2,CCGTAAGG,-0.277
3,ACTAGGCC,-0.223
4,TGACAACA,0.0887
5,GAGCAGAC,-0.0206
6,CACGCGAG,0.0558
7,AGTAAAGG,0.108
8,AGAGGTGG,-0.00498
9,GAACCTCC,-0.15
10,CAGCTCCC,-0.367
11,GGTGACGA,0.0762
12,AATATCTA,0.0725
13,ATTAAACA,0.0847
14,ATTAGGCG,0.0783
15,AATAATCT,0.31
16,TGACCAAA,0.0457
17,ATGAACGA,0.0136
18,ACTGAATG,0.0659
19,CGCCTACG,-0.0505
20,GGAACCTA,0.014
21,AAAGACCA,-0.153
22,TTCAGGAA,-0.0518
23,CTTGCCAA,-0.0286
24,CACCTCAA,-0.0307
25,CCCTAGGG,-0.322

row,Sequence,PBM E-score
1,ATGACATC,0.143
2,ACGACTAA,-0.0256
3,CTAAACAC,0.0338
4,GCCAGCAA,-0.146
5,CCCGTTGA,-0.0597
6,GGCGGACC,-0.308
7,TGGATACA,0.0298
8,CATCGGGC,-0.243
9,AAAGTAAG,-0.0491
10,ACGACTAT,0.114
11,CTCATCCC,-0.199
12,GGCGGGAA,-0.0118
13,ACCGCCCT,-0.117
14,CAGATTGC,0.0178
15,AGGGATCG,-0.251
16,CAAGGCCA,-0.0166
17,CGTGAGGC,-0.0191
18,CACCTCAG,-0.102
19,CATCGATA,0.237
20,GTGGGAAC,-0.0463
21,CAGCTTCC,-0.14
22,GGCGCCAC,-0.177
23,ACACCCCC,-0.289
24,CGCCGACG,-0.0697
25,GATTCCGC,-0.0196

row,Sequence,PBM E-score
1,TCTAGGCA,-0.102
2,CTGTCTAA,-0.014
3,CACGGTCG,-0.221
4,TCCAAGCA,0.0609
5,GCTGGTCC,-0.102
6,AATATGTC,0.111
7,ACTTGTAA,0.0694
8,AAATAAGC,0.12
9,CGCGAGGA,0.00311
10,GGCTTTTA,-0.197
11,ACGGTGGG,-0.0405
12,ATCGTAAC,0.0721
13,CGGTACCG,0.0451
14,ATTTAGTC,0.167
15,GCCAACTA,-0.181
16,CCATTCGC,-0.0811
17,TGTCGTAA,0.0512
18,CAGAGGAA,-0.0763
19,CCCGTGTC,-0.228
20,CGAAAAGC,-0.107
21,AATCGCGA,0.255
22,TATGTCAA,0.228
23,CCGATCCG,-0.0465
24,AGACGGCA,-0.0106
25,ATGGCGCC,-0.199

row,Sequence,PBM E-score
1,AAGTCGCA,0.0681
2,CCATAAGC,-0.0492
3,AAGCGGGC,-0.158
4,ATACCTCG,0.125
5,CCTATCGC,-0.197
6,AAGCCCGC,-0.173
7,AGCCATCG,-0.0643
8,GACTGATC,-0.0446
9,GATTGACC,-0.0938
10,ACGAGCCA,0.00329
11,AGTACCGA,0.0518
12,AGAGCGCC,-0.0699
13,CCACAGGC,-0.379
14,GCCACAAC,0.151
15,CCTGTGCA,-0.125
16,CAGACCAG,-0.0471
17,CCAAAGAA,0.124
18,AGACATTC,-0.0855
19,AGGGTCTG,-0.248
20,GATTGACA,0.0145
21,AGTCTAAT,0.0429
22,CCGGTAAA,0.0746
23,AAGAGAGC,-0.218
24,CAGCACTG,-0.139
25,GGCAAGGA,-0.0794

row,Sequence,PBM E-score
1,CACTGTAG,0.0623
2,ACTCGACC,-0.198
3,ATAGATAA,0.221
4,AACCGAGG,-0.162
5,CGTTCCTC,-0.138
6,CACTGTTA,-0.016
7,CATCAGTA,0.0801
8,AGCTGAAT,0.152
9,CCTAACGC,-0.0964
10,CATCATGA,-0.014
11,ACGACTCC,-0.0211
12,AACCGCAG,-0.157
13,CATTGTAA,0.172
14,ACCGCTGC,-0.215
15,ATAACTTA,0.147
16,CATTAACA,0.13
17,CGACTGAG,-0.0972
18,AGTGGAAT,0.0743
19,CCCCGCCG,-0.279
20,GAGTTGTA,0.0824
21,ATCTGCCA,0.036
22,CTCGCTTA,0.177
23,CCACGCAC,0.0214
24,ATATGGTC,0.0553
25,AAATTGTT,0.183

# A second format for some results above:
row	Sequence	PBM E-score
21	ATCTGCCA	0.036
22	CTCGCTTA	0.177
23	CCACGCAC	0.0214
24	ATATGGTC	0.0553

# (continued)

row,Sequence,PBM E-score
1,ATAACCTG,-0.0425
2,ATGATTGA,0.107
3,ACAGCTGC,0.0437
4,CTGACCTA,-0.12
5,GGAGGGCC,-0.277
6,ACCACACA,0.175
7,CAATGGCA,0.128
8,AGCTATGC,-0.154
9,GCCGAACC,-0.0781
10,AACAATTA,0.323
11,GGTGGGAC,-0.282
12,AATTCTGT,0.0491
13,AACTATCC,-0.036
14,CTACTTAC,0.00279
15,CATCTGAC,-0.159
16,ACTATTTA,0.212
17,ATGGCGCA,0.137
18,CGATCGAA,0.108
19,AATCCGCG,-0.00263
20,CCAGTACC,-0.00753
21,GAGTAGTA,0.0528
22,CCTACCCG,-0.174
23,CACATAGC,0.00504
24,AGCCGGGG,-0.343
25,GCGTTTCA,0.0386

row,Sequence,PBM E-score
1,CCCTTGGA,-0.0842
2,CCAGCGTA,-0.0748
3,GGTGTCCA,0.0644
4,ACTGAAAG,0.114
5,CTACGCAC,-0.0999
6,ATTACACC,0.215
7,CGTTACAC,-0.0321
8,GAAGCTTC,-0.0855
9,AAAAATGC,0.106
10,GAATTCAA,0.119
11,GGCATCCA,-0.174
12,CCGAGGTA,-0.166
13,GGTTAGCA,0.041
14,AGATGCAC,-0.199
15,CAAAGTCA,0.0697
16,CTTGCCGC,-0.119
17,CTATTCGA,0.0725
18,GCTCCGAA,0.0384
19,AGTATTCC,0.135
20,CAGCACTA,-0.0742
21,TGTCCACA,0.0887
22,TATTTGCA,0.0501
